No constants are given. Whether binding was seen depends on the method and setting. For some assays here: In cells and extracts the contact can be indirect. Some binding calls cover weakened binding; strength is not graded here. Where a sequence is shown, tags or fusion partners need not be part of it.
T1: MDH1 (yeast mitochondrial malate dehydrogenase) fused with the small nanoBiT subunit (SmBiT) (Saccharomyces cerevisiae) (UniProt P17505)
T1 sequence: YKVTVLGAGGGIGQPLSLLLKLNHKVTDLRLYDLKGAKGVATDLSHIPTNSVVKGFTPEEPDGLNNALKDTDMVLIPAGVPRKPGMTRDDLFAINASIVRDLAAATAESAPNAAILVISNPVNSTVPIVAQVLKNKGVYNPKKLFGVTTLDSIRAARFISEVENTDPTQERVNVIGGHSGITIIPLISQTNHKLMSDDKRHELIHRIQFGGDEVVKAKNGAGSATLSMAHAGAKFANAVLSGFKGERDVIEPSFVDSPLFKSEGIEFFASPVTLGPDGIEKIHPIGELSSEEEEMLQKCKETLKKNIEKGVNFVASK

T2: recombinant yeast MDH1, fluorescently labeled (yeast (Saccharomyces cerevisiae)) (UniProt P17505)
T2 sequence (chain, labeled with Protein Labeling Kit RED-NHS 2nd Generation (NanoTemper)): T1 sequence

B1: CIT1 (yeast mitochondrial citrate synthase) fused with the large nanoBiT subunit (LgBiT) (enzyme, UniProt P00890 38-479)
chain: SSASEQTLKERFAEIIPAKAEEIKKFKKEHGKTVIGEVLLEQAYGGMRGIKGLVWEGSVLDPEEGIRFRGRTIPEIQRELPKAEGSTEPLPEALFWLLLTGEIPTDAQVKALSADLAARSEIPEHVIQLLDSLPKDLHPMAQFSIAVTALESESKFAKAYAQGVSKKEYWSYTFEDSLDLLGKLPVIASKIYRNVFKDGKITSTDPNADYGKNLAQLLGYENKDFIDLMRLYLTIHSDHEGGNVSAHTTHLVGSALSSPYLSLAAGLNGLAGPLHGRANQEVLEWLFKLREEVKGDYSKETIEKYLWDTLNAGRVVPGYGHAVLRKTDPRYTAQREFALKHFPDYELFKLVSTIYEVAPGVLTKHGKTKNPWPNVDSHSGVLLQYYGLTEASFYTVLFGVARAIGVLPQLIIDRAVGAPIERPKSFSTEKYKELVKKIESKN
B2: recombinant yeast CIT1 (enzyme)
chain: B1 chain

Key:
[1] = target: T1, MDH1 (yeast mitochondrial malate dehydrogenase) fused with the small nanoBiT subunit (SmBiT) (Saccharomyces cerevisiae); assay: split reporter; nanoBiT split luciferase in living yeast cells (MDH1-SmBiT, CIT1-LgBiT from the native loci), furimazine, 28°C; cells in SD-Raff or SD-Acet; treatments: glucose, fructose, sucrose, galactose, phosphate, acetate, aminooxyacetate, malonate, cyanide, antimycin, oligomycin
[2] = target: T2, recombinant yeast MDH1, fluorescently labeled (yeast (Saccharomyces cerevisiae)); assay: MST; labeled MDH1 as target, CIT1 titrated; MST buffer (50 mM Tris-HCl pH 8, 150 mM NaCl, 10 mM MgCl2, 5 mM DTT, 0.05% Tween-20) with 10 mM malate, fumarate, α-ketoglutarate, succinate, aspartate or glutamate, or with ATP (5, 2.5, 1.25 mM); both purified

Binder | binding [1] | binding [2]
B1 | binds | 
B2 |  | binds

— article doi:10.1101/2025.06.16.659985, “Dynamic assembly of malate dehydrogenase-citrate synthase multienzyme complex in the mitochondria” (bioRxiv, 2025)
